From the supplement of paper PMC10849652 come the findings set out here.

By UniProt entry, the sequences of proteins in these tests, tags left out. Where a name states a change or a piece, a line headed by the entry shows the natural chain unless it says otherwise.
UniProt Q9BTE3: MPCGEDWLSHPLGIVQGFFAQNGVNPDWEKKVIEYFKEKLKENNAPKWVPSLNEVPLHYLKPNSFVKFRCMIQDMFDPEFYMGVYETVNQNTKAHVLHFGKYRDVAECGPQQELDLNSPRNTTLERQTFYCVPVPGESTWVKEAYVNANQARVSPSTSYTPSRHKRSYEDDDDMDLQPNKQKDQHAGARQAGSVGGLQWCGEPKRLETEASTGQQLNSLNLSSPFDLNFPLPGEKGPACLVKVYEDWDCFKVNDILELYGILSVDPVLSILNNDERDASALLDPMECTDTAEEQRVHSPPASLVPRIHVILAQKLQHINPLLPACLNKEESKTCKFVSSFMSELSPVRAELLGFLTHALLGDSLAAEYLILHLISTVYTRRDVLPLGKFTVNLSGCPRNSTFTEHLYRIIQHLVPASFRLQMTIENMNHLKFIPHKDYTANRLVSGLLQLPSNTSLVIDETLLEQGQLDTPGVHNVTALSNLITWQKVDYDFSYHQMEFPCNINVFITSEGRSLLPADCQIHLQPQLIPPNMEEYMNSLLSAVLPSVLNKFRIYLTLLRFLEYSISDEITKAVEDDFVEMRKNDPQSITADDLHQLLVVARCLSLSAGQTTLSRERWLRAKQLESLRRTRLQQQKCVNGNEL
UniProt Q9NRN9: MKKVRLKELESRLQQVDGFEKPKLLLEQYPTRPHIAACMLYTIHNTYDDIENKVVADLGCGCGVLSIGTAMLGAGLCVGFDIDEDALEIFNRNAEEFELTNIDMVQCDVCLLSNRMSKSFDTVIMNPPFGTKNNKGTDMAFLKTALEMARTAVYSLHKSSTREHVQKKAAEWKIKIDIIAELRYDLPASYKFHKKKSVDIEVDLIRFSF
UniProt P40926: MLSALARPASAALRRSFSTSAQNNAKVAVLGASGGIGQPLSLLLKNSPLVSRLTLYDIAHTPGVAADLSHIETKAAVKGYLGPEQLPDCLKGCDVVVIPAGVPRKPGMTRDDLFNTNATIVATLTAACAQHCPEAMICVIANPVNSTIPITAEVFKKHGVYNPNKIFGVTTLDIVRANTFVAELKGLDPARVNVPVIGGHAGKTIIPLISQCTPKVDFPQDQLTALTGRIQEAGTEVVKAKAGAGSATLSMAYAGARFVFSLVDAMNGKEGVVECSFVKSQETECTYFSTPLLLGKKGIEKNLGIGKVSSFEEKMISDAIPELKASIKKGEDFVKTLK
UniProt Q9HCE5: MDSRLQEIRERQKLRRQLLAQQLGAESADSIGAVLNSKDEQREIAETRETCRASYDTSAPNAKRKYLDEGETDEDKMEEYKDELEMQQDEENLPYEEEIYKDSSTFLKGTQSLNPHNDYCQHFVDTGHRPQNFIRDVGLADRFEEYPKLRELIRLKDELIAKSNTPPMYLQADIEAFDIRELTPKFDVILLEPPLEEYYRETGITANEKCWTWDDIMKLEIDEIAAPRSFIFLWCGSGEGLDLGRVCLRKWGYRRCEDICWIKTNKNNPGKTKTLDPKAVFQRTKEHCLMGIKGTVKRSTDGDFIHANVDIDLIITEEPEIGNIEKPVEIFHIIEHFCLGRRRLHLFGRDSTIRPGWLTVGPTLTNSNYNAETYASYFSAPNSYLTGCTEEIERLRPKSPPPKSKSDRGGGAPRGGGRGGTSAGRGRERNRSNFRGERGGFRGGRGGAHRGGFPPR
UniProt Q9BV79: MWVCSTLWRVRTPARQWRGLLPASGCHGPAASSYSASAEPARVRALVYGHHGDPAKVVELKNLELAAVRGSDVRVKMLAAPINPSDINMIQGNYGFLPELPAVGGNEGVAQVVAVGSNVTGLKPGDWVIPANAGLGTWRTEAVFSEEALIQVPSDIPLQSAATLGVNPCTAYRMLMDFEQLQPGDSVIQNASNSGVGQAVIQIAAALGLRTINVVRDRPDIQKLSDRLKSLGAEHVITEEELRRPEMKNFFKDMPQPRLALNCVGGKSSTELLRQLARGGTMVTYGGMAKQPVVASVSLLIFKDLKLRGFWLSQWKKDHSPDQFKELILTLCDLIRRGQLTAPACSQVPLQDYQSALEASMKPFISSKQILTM
UniProt Q6UB28: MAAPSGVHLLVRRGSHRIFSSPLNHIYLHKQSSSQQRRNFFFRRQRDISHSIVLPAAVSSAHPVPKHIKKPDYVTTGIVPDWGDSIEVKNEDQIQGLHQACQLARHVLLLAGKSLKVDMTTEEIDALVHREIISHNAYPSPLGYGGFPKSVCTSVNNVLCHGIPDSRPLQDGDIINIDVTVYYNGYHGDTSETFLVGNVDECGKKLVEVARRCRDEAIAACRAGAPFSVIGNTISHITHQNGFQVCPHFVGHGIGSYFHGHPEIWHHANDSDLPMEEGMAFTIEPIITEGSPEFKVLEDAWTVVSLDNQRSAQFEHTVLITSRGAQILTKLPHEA
UniProt Q02078: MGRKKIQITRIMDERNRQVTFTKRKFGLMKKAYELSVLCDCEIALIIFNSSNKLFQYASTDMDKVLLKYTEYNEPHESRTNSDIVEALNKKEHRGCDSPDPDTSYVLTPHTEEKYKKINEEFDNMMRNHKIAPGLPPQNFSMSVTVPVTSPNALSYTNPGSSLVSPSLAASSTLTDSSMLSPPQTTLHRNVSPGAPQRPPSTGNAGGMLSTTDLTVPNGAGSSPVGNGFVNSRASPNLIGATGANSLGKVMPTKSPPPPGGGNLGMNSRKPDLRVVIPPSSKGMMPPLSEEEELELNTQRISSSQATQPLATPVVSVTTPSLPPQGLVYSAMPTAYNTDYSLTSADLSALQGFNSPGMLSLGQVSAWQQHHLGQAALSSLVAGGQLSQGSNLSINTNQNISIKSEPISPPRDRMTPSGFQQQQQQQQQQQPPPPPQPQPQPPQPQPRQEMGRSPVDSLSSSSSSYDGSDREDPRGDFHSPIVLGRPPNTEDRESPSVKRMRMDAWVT
UniProt Q14728: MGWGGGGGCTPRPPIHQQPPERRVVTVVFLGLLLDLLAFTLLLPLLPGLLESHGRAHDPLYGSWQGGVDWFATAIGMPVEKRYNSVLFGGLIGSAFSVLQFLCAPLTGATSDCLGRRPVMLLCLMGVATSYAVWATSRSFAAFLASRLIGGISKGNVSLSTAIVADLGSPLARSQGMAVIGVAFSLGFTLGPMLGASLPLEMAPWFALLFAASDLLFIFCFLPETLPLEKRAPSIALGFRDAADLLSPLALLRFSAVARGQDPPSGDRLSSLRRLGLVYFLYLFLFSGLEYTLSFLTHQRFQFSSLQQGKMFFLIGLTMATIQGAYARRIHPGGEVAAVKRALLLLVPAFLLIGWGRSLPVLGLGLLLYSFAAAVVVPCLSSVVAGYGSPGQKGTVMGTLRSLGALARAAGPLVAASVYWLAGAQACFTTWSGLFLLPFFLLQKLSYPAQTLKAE
UniProt O43513: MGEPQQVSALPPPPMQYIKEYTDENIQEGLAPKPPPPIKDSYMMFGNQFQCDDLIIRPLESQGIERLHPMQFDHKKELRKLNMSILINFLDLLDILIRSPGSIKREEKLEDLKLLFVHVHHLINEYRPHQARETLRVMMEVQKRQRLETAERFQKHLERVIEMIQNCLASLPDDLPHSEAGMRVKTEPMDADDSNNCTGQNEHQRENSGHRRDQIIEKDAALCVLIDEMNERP
UniProt P23368: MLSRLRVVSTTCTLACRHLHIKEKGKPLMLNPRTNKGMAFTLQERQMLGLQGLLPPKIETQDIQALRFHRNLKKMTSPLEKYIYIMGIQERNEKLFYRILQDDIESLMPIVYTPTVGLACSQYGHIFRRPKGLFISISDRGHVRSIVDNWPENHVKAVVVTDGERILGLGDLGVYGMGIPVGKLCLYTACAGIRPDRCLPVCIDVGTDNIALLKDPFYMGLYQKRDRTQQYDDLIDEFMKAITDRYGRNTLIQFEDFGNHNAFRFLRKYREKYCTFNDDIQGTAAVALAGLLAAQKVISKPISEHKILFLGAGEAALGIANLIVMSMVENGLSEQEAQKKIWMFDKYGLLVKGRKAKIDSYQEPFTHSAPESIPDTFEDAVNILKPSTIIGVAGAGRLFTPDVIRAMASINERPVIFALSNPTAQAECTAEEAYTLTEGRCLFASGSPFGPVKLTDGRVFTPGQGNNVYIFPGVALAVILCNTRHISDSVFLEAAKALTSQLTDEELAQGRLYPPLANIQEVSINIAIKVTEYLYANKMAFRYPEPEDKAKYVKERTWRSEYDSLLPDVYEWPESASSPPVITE
UniProt Q96IZ6: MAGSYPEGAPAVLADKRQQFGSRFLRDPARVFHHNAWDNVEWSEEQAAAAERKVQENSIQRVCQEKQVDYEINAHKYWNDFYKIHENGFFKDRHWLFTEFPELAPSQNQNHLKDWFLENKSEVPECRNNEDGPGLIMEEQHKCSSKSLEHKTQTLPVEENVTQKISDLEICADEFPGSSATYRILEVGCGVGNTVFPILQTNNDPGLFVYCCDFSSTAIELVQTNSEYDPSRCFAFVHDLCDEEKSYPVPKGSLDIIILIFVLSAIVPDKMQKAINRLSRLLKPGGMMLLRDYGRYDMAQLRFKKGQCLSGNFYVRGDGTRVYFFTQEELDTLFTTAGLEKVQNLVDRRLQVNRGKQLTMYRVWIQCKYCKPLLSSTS
UniProt O95140: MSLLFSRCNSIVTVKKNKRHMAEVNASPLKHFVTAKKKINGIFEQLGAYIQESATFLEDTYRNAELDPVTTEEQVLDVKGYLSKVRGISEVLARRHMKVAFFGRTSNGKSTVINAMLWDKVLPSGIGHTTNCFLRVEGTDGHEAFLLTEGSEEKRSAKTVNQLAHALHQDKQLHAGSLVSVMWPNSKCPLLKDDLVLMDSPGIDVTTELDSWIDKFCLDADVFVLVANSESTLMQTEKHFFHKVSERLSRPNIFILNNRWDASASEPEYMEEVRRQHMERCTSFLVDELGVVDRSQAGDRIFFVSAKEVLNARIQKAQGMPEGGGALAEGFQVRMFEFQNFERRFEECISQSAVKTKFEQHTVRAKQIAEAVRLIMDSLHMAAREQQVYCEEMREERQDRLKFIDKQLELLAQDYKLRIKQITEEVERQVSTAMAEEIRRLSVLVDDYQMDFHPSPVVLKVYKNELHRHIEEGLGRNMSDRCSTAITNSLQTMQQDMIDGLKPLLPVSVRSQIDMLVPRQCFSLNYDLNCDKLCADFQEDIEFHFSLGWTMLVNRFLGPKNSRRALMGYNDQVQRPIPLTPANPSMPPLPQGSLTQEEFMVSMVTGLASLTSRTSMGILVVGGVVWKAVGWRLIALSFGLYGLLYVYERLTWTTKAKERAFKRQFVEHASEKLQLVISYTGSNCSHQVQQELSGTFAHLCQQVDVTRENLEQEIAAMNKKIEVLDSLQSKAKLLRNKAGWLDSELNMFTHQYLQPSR
UniProt Q96G25: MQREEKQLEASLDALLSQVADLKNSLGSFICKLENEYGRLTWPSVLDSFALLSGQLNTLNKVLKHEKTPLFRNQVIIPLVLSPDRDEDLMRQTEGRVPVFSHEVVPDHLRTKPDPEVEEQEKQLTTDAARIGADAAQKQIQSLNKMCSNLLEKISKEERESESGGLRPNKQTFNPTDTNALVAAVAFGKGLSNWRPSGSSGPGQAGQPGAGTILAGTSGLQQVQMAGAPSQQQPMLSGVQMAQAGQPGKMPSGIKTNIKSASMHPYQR
UniProt Q86W50: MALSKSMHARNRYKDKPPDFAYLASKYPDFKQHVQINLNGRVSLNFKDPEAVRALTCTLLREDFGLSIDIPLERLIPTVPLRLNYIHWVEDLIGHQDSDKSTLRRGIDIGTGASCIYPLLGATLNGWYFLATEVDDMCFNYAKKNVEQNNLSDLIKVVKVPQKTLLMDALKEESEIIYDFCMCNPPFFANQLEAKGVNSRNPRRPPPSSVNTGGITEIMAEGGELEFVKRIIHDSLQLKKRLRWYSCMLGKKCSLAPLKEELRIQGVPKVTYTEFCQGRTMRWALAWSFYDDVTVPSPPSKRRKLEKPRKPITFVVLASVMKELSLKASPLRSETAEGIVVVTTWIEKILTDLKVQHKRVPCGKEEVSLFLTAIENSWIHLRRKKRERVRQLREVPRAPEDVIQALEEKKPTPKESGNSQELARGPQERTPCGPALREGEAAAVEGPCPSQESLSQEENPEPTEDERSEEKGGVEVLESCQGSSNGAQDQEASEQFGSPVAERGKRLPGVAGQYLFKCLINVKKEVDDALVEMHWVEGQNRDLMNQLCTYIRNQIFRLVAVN
UniProt Q96AQ8: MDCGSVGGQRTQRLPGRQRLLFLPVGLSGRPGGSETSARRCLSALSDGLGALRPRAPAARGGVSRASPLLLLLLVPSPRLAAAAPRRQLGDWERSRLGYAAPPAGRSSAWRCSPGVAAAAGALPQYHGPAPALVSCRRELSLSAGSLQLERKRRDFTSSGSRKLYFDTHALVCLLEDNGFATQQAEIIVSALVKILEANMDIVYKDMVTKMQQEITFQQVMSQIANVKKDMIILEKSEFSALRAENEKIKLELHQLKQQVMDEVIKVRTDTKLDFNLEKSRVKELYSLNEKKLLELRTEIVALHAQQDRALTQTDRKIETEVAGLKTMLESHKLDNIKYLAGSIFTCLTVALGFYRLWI

This is one part of the list.

Compound in the assay: C[C@H](Nc1ncnc2nc[nH]c12)c1cc2cccc(Cl)c2c(=O)n1-c1ccccc1 [duvelisib]
In words: log2 fold change, soluble protein after heating vs DMSO (PISA); higher = thermal stabilisation; K562 lysate, 10 uM; active = over 0.2 and 3.5 SD of the protein, either way, in both replicates (recomputed). The procedure, abridged: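 A 30 min treatment with 10 μM compound was applied to crude K562 extract at 1 mg/mL protein in PBS pH 7.4 with 1 mM MgCl2. Heating for 3 min spanned 48°C-58°C, after which aliquots were pooled, adjusted to 0.5% NP-40 at 4°C and spun at 21,000xg for 90 min. TMTpro 16plex LC-MS/MS of the supernatant, with channel sums equalised, gave values recorded as log-two fold change in thermal stability against solvent controls, from duplicates.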
As for MCMBP (UniProt Q9BTE3), the log2 fold change is inactive: 0.002.

Take MED20 (UniProt Q9H944): the log2 fold change is inactive: -0.025.

For the target METTL5 (UniProt Q9NRN9), the log2 fold change is inactive: 0.006.

MDH2 (UniProt P40926): the log2 fold change was inactive: -0.002.

In the case of METTL14 (UniProt Q9HCE5), the log2 fold change was inactive: 0.016.

On to MECR (UniProt Q9BV79), for which the log2 fold change was inactive: 0.007.

For the target METAP1D (UniProt Q6UB28), the log2 fold change is inactive: -0.054.

On to MEF2A (UniProt Q02078), for which the log2 fold change is inactive: 0.094.

In the case of MFSD10 (UniProt Q14728), the log2 fold change was inactive: -0.01.

In the case of MCL1 (UniProt Q07820), the log2 fold change is inactive: -0.002.

For the target MCM6 (UniProt Q14566), the log2 fold change was inactive: -0.009.

For the target MED7 (UniProt O43513), the log2 fold change was inactive: -0.02.

For the target MFSD4B (UniProt Q5TF39), the log2 fold change was inactive: 0.02.

In the case of ME2 (UniProt P23368), the log2 fold change is inactive: -0.039.

On to METTL2A (UniProt Q96IZ6), for which the log2 fold change was inactive: 0.052.

For the target MFN2 (UniProt O95140), the log2 fold change was inactive: 0.015.

With MED8 isoform 2 (UniProt Q96G25), the log2 fold change is inactive: 0.023.

Turning to MED4 (UniProt Q9NPJ6), the log2 fold change was inactive: 0.018.

In the case of METTL16 (UniProt Q86W50), the log2 fold change was inactive: -0.022.

For the target MEF2C isoform 5 (UniProt Q06413), the log2 fold change is inactive: 0.13.

Take MCUR1 (UniProt Q96AQ8): the log2 fold change is inactive: 0.006.

In the case of METAP2 (UniProt P50579), the log2 fold change is inactive: 0.007.

With MBD3 (UniProt O95983), the log2 fold change is inactive: 0.015.
